Measurements reported in patent publication CN101123983A.
Results are given in words; binding and its absence hold for the method and conditions named. Some entries that bind do so weakly or less than the wild type.

Amino acid sequences for entries named in this document (tags omitted). A change or cut given only in a name is not applied to a line headed by its entry.
UniProt P54764: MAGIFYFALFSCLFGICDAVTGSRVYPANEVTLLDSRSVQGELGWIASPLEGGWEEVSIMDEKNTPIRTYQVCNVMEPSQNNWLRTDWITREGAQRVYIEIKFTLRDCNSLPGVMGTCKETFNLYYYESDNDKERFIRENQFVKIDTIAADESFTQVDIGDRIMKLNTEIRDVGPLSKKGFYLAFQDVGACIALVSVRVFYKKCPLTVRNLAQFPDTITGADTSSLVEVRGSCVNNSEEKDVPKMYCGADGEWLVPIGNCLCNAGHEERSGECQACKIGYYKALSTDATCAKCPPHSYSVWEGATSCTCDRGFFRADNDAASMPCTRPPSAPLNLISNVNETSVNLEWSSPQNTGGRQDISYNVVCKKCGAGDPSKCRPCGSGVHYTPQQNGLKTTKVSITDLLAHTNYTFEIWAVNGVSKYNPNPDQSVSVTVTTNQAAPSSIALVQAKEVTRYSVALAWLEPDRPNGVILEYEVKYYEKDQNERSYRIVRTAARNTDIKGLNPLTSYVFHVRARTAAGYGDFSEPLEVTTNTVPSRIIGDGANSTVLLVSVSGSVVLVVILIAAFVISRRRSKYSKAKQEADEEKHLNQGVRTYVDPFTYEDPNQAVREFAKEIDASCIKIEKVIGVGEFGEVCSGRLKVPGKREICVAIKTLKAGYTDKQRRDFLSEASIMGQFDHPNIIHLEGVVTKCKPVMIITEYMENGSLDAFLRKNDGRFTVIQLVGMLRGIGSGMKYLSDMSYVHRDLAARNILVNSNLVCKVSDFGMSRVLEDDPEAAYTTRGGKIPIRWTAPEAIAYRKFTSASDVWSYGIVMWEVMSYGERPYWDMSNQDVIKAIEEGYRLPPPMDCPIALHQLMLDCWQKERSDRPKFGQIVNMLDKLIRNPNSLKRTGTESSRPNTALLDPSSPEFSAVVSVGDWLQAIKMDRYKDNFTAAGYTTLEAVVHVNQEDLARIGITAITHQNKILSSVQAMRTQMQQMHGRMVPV

Molecular target: 人EphA4-His融合蛋白 (human EphA4 extracellular domain fused to a histidine tag) (human) (UniProt P54764)
Test: secondary screen of combination variant Fabs: activity ELISA on coated human EphA4-His, normalised by Fab quantitation ELISA

- binding: binds
B1: 8B4 (Fab, V domains shown)
VH: QVQLLQSGAEVKKPGASVKVPCKASGYTFTSRAMSWVRQAPGQGLEWMGWINTNTGNPTYAQGFTGRFVFSLDTSVSTAYLQISSLKAEDTAVYYCARVRLTVYGDGMDVWGQGTLVTVSS
VL: EIVLTQSPATLSVSPGERATLSCRASQSVSSNPAWYQQKPGQAPRLLIYGLSTRATGIPDRFSASGSGTDFTLTISRVEPEDFAVYYCQQYGPSWTFGQGTKVEIK
